Test results from the supplement of paper PMC7666118.
The other results are listed elsewhere or left out.

Protein sequences, listed by entry. Tags and fused reporters are not part of them. Lines headed by an entry give the natural chain unless they say otherwise; changes in a name come on top.
UniProt Q9Y6E0: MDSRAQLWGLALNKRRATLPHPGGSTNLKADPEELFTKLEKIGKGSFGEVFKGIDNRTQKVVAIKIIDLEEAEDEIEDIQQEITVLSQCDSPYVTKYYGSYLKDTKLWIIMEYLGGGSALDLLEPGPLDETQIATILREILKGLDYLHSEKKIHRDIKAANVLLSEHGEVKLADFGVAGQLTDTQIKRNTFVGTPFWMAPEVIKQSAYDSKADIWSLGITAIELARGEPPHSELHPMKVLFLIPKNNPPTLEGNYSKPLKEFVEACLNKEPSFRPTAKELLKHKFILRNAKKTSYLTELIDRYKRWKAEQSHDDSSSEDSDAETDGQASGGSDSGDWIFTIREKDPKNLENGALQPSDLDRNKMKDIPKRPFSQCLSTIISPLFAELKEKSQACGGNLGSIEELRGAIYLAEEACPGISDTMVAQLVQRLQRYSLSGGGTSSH
UniProt Q9UGI8: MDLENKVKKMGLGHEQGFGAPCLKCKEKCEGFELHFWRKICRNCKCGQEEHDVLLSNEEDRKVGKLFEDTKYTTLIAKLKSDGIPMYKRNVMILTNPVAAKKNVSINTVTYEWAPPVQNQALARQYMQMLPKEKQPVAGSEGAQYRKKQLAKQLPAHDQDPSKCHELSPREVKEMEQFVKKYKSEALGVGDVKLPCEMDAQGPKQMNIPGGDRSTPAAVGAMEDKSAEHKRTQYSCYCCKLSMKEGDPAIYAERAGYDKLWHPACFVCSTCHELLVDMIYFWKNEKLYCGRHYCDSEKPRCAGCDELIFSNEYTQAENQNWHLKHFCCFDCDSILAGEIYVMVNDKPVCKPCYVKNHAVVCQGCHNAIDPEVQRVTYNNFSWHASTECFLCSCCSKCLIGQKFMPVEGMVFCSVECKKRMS
UniProt Q66K14, whole entry: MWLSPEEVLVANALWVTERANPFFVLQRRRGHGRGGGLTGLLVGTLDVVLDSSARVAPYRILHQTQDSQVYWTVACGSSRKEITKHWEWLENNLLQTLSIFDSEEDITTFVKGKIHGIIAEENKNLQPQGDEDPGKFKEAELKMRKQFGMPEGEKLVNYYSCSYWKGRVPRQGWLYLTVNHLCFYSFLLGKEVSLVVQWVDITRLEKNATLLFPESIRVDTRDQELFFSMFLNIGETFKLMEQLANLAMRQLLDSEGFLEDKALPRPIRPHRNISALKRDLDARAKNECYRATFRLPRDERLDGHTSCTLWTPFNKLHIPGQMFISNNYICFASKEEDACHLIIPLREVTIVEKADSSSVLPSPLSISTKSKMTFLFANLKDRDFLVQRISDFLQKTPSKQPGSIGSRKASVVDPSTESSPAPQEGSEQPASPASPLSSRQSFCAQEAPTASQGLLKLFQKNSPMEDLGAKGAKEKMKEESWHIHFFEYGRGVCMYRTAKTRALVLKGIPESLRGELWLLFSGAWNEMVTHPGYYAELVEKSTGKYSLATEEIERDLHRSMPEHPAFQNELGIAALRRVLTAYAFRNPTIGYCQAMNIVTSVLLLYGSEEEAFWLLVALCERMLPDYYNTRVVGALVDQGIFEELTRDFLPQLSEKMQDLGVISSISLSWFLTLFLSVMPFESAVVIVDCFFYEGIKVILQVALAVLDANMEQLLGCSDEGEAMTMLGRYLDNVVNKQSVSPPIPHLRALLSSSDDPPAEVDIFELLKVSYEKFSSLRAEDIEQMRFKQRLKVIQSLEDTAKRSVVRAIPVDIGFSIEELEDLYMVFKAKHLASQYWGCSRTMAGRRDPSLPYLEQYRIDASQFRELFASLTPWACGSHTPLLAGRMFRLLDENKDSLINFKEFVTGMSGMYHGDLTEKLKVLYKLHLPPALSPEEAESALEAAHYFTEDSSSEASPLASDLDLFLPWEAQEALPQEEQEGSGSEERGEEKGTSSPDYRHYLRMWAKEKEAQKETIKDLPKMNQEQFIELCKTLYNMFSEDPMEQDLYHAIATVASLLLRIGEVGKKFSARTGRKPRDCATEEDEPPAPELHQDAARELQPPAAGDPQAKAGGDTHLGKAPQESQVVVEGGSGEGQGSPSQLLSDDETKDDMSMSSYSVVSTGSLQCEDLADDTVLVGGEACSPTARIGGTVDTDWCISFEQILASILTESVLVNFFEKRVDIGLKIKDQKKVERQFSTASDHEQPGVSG
UniProt Q9H2V7: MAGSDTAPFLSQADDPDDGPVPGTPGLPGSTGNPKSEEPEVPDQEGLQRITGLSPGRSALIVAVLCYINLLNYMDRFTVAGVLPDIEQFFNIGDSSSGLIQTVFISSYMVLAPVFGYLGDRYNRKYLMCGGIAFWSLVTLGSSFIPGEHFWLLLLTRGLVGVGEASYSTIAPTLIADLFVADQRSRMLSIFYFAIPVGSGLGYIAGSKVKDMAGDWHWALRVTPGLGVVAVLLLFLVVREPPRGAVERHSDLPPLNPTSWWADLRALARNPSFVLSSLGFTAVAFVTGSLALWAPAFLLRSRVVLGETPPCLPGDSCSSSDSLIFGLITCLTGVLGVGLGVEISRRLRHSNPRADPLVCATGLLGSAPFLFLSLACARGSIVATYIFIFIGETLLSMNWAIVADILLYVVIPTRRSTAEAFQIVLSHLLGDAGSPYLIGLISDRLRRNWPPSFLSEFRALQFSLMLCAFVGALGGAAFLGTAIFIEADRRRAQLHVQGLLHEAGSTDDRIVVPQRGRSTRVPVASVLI
UniProt Q68D10: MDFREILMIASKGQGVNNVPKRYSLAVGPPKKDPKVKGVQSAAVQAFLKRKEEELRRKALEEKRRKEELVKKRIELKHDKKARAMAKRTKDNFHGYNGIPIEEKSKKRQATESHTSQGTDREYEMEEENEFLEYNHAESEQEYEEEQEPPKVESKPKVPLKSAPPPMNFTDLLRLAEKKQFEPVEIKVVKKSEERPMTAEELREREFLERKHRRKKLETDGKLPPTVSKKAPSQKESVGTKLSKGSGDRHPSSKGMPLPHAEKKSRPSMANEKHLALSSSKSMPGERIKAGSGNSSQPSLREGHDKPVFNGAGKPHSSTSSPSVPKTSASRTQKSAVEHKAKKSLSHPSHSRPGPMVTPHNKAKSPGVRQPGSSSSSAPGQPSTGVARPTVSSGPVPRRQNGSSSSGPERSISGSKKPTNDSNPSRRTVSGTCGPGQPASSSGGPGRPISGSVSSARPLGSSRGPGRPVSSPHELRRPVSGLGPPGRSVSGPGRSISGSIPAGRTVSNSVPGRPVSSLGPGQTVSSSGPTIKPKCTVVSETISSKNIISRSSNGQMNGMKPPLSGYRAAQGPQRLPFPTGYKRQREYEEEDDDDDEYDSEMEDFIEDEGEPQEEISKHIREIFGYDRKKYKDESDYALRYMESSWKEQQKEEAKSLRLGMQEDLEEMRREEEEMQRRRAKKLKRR
UniProt P46977: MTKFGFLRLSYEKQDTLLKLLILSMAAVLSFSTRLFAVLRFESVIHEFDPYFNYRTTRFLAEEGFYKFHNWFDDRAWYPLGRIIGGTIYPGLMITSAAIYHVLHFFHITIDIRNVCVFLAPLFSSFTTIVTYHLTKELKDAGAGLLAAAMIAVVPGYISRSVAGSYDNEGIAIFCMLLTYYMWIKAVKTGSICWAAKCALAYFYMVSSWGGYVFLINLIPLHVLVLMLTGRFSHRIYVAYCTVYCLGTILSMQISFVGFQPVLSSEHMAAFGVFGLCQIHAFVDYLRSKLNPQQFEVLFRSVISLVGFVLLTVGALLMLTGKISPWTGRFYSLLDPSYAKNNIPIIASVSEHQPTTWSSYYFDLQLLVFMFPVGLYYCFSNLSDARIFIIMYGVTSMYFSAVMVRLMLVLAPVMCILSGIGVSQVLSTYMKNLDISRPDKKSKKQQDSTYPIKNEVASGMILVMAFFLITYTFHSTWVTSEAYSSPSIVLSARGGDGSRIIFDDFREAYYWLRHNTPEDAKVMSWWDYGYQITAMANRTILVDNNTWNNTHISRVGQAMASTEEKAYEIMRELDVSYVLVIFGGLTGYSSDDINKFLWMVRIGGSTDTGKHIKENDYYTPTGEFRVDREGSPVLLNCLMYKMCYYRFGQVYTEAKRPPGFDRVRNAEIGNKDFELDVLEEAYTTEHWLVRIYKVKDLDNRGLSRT
UniProt P49848, whole entry: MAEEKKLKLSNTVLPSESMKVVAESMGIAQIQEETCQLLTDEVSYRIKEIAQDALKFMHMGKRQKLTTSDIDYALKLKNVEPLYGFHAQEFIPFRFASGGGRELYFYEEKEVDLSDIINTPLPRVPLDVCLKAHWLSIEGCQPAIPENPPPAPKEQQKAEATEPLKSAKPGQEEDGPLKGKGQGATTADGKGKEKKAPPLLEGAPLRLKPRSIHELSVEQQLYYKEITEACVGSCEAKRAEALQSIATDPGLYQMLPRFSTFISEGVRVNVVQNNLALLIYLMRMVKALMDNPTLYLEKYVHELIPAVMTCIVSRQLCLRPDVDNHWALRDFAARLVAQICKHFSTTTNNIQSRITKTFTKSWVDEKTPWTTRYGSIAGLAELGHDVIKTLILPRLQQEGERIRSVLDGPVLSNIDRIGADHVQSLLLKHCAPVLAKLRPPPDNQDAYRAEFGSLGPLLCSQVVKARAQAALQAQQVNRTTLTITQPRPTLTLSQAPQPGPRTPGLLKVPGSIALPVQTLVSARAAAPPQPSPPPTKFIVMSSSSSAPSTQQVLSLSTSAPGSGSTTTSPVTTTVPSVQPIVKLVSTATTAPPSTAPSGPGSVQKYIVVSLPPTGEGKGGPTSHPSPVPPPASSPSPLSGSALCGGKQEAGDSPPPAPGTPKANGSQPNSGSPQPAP
UniProt A2RTX5: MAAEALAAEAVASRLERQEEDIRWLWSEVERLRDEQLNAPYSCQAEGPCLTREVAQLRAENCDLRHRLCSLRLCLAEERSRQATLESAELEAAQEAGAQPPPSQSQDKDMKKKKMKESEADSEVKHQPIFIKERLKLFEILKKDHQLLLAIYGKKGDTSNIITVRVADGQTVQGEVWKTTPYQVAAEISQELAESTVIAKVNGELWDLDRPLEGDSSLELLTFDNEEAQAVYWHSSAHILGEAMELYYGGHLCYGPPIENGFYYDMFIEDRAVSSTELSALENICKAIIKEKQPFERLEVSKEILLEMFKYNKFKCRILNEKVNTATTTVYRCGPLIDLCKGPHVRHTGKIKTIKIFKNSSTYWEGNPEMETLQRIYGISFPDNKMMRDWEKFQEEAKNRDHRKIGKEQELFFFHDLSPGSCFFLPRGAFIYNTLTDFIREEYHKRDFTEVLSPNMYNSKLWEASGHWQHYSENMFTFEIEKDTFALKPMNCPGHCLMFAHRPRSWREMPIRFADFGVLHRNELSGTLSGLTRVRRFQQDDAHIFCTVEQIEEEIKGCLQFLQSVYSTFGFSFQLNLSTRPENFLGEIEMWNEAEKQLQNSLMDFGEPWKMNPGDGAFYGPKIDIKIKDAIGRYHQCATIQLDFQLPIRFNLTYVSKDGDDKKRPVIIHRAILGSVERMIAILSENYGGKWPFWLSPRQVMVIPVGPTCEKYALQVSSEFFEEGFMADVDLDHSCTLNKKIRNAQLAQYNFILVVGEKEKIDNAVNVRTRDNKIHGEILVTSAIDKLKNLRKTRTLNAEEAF
UniProt Q8WUA7: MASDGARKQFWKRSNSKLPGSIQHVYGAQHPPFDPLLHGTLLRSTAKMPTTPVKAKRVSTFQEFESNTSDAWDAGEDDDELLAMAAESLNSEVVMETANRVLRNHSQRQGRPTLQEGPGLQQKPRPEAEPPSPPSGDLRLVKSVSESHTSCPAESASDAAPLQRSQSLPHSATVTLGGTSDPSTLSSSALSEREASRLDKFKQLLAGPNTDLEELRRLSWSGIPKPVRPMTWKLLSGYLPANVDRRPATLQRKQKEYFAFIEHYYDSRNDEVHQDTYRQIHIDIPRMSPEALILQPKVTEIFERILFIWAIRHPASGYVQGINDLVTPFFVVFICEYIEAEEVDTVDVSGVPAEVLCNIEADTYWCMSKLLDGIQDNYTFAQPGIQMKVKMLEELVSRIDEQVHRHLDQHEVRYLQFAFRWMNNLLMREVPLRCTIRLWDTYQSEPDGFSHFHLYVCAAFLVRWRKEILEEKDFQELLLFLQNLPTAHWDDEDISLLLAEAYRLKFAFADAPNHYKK
UniProt Q9UNL2: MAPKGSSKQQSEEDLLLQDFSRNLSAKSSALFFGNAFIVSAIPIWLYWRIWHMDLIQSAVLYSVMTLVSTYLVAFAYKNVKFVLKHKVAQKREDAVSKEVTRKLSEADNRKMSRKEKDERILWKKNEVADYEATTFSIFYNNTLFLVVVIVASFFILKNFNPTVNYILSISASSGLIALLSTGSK
UniProt Q15814: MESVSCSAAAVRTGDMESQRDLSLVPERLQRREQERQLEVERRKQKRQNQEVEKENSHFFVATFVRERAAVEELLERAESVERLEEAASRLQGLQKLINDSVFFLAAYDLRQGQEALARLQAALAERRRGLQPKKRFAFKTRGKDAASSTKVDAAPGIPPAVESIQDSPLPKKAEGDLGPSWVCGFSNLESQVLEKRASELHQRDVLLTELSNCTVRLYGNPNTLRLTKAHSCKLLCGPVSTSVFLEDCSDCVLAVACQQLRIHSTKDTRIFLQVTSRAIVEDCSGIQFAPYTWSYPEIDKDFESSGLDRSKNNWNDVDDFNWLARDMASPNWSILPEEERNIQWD

These targets were tested with COc1ccc(Cn2ccc3cc(C)c(C(=O)NO)cc32)cc1 (assay: dose-dependent thermal stabilisation call (2D-TPP, DLPTP, 10% FDR) (binary (1 = stabilised)); higher = stabilised by the compound). Conditions: system: HL-60 intact cells; concentration range 0.04-10 µM.
Method: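 2D thermal proteome profiling in intact HL-60 cells treated with BRD-3811 (0, 0.04, 0.29, 2, 10 uM) for 90 min at 37 C, then heated 3 min at one of 12 temperatures (42-63.9 C). Soluble protein was quantified by TMT10 MS. The value is the DLPTP call of the paper: dose-dependent thermal stabilisation over all temperatures at 10% FDR (F-test of a dose-response against a flat model); one experiment, one call per tested protein.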
For STK24 (UniProt Q9Y6E0), the “dose-dependent thermal stabilisation call” value was inactive: 0.
For STRADA (UniProt Q7RTN6), the “dose-dependent thermal stabilisation call” value was inactive: 0.
SWAP70 (UniProt Q9UH65) was tested, and the “dose-dependent thermal stabilisation call” value was inactive: 0.
For TES (UniProt Q9UGI8), the “dose-dependent thermal stabilisation call” value was inactive: 0.
For STARD3NL (UniProt O95772), the “dose-dependent thermal stabilisation call” value was inactive: 0.
With TBRG4 (UniProt Q969Z0) the “dose-dependent thermal stabilisation call” value was inactive: 0.
For TBC1D9B (UniProt Q66K14), the “dose-dependent thermal stabilisation call” value was inactive: 0.
In the case of SPTLC2 (UniProt O15270), the “dose-dependent thermal stabilisation call” value was inactive: 0.
In the case of TCF20 (UniProt Q9UGU0), the “dose-dependent thermal stabilisation call” value was inactive: 0.
For STIM1 (UniProt Q13586), the “dose-dependent thermal stabilisation call” value was inactive: 0.
With STAU2 (UniProt Q9NUL3) the “dose-dependent thermal stabilisation call” value was inactive: 0.
With SPNS1 (UniProt Q9H2V7) the “dose-dependent thermal stabilisation call” value was inactive: 0.
With TBL3 (UniProt Q12788) the “dose-dependent thermal stabilisation call” value was inactive: 0.
With SPTY2D1 (UniProt Q68D10) the “dose-dependent thermal stabilisation call” value was inactive: 0.
With SPRY2 (UniProt O43597) the “dose-dependent thermal stabilisation call” value was inactive: 0.
STT3A (UniProt P46977) was tested, and the “dose-dependent thermal stabilisation call” value was inactive: 0.
For THADA (UniProt Q6YHU6), the “dose-dependent thermal stabilisation call” value was inactive: 0.
In the case of SSSCA1 (UniProt O60232), the “dose-dependent thermal stabilisation call” value was inactive: 0.
In the case of TAF4 (UniProt O00268), the “dose-dependent thermal stabilisation call” value was inactive: 0.
With TAF6 (UniProt P49848) the “dose-dependent thermal stabilisation call” value was inactive: 0.
With TARS (UniProt P26639) the “dose-dependent thermal stabilisation call” value was inactive: 0.
TBCB (UniProt Q99426) was tested, and the “dose-dependent thermal stabilisation call” value was inactive: 0.
TBC1D7 (UniProt Q9P0N9) was tested, and the “dose-dependent thermal stabilisation call” value was inactive: 0.
In the case of TBC1D10B (UniProt Q4KMP7), the “dose-dependent thermal stabilisation call” value was inactive: 0.
In the case of TEX2 (UniProt Q8IWB9), the “dose-dependent thermal stabilisation call” value was inactive: 0.
For STAT3 (UniProt P40763), the “dose-dependent thermal stabilisation call” value was inactive: 0.
With TFAM (UniProt Q00059) the “dose-dependent thermal stabilisation call” value was inactive: 0.
With TARSL2 (UniProt A2RTX5) the “dose-dependent thermal stabilisation call” value was inactive: 0.
For TBXAS1 (UniProt P24557), the “dose-dependent thermal stabilisation call” value was inactive: 0.
For TBC1D22A (UniProt Q8WUA7), the “dose-dependent thermal stabilisation call” value was inactive: 0.
With SSFA2 (UniProt P28290) the “dose-dependent thermal stabilisation call” value was inactive: 0.
TAF1C (UniProt Q15572) was tested, and the “dose-dependent thermal stabilisation call” value was inactive: 0.
In the case of TCEA2 (UniProt Q15560), the “dose-dependent thermal stabilisation call” value was inactive: 0.
For SSR3 (UniProt Q9UNL2), the “dose-dependent thermal stabilisation call” value was inactive: 0.
With TBCC (UniProt Q15814) the “dose-dependent thermal stabilisation call” value was inactive: 0.
SYF2 (UniProt O95926) was tested, and the “dose-dependent thermal stabilisation call” value was inactive: 0.
STEAP3 (UniProt Q658P3) was tested, and the “dose-dependent thermal stabilisation call” value was inactive: 0.
For STC2 (UniProt O76061), the “dose-dependent thermal stabilisation call” value was inactive: 0.
In the case of SPR (UniProt P35270), the “dose-dependent thermal stabilisation call” value was inactive: 0.
TBC1D22B (UniProt Q9NU19) was tested, and the “dose-dependent thermal stabilisation call” value was inactive: 0.
